Results on 2 compounds are retold here after ChEMBL document CHEMBL5579863, “Galectin-8N-Selective 4-Halophenylphthalazinone-Galactals Double π-Stack in a Unique Pocket” (ACS Med Chem Lett, 2024).

Broadly, the Papp is a coefficient for how fast a substance crosses the barrier. The low end stands for slow passage, the high end for fast passage.

A short description of the data set: in vitro. The note with it: PAMPA. In general terms: PAMPA measures passive passage across an artificial lipid membrane.

A value given as a limit tells only on which side of the number the result lay.

With `O=c1c2ccccc2c(-c2ccc(Br)cc2)nn1CO[C@@H]1C=CO[C@H](CO)[C@@H]1O`, the Papp at 5 h, 100 µM was above 5 ×10⁻⁶ cm/s.

Turning to `O=c1c2ccccc2c(-c2ccc(F)cc2)nn1CO[C@@H]1C=CO[C@H](CO)[C@@H]1O`, the Papp at 5 h, 100 µM is above 5 ×10⁻⁶ cm/s.
